The source of these data is PMC4288178, “CRISPR RNA binding and DNA target recognition by purified Cascade complexes from Escherichia coli”.

Experiment [1] deals with T1, Cse1 (CasA) (E. coli) (UniProt Q46901).
T1 sequence: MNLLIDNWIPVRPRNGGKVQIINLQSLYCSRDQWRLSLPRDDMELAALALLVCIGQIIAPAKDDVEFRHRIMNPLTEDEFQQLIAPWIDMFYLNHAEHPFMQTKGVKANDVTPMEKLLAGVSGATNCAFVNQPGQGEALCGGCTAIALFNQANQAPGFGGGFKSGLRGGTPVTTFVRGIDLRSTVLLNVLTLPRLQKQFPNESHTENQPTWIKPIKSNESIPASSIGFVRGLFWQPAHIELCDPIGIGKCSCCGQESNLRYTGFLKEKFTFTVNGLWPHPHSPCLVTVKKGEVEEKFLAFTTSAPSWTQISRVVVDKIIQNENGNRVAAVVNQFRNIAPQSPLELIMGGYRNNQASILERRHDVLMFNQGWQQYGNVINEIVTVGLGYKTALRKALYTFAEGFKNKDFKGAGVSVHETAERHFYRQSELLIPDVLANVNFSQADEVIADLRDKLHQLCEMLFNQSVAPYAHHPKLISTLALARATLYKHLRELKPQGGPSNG
Put plainly: affinity purification with mass spectrometry; Cascade-: casABCDE operon expressed in E. coli with deleted CRISPR cassette and without the crRNA plasmid pWUR615; N-terminal 6His-Cse1 held on a nickel-affinity column; same protocol; read by SDS-PAGE and LC-MS.

The target of experiment [2] is T1, Cse1 (CasA) (E. coli). Put plainly: affinity purification with mass spectrometry; Cascade+: casABCDE operon co-expressed with g8 crRNA (pWUR615) in E. coli; N-terminal 6His-Cse1 held on a nickel-affinity column; 50 mM HEPES-K pH 7.5, 300 mM NaCl, 5% glycerol, 0-150 mM imidazole; fractions read by SDS-PAGE and in-gel trypsin digestion with LC-MS.

These are yes or no findings as the source states them, for the method shown. Binding seen in cells or lysates may run through a third protein. Here binding means that the protein was enriched with, or labelled near, the bait; the list need not be complete.

B1: Cas7 (CasC) (protein, UniProt Q46899 1-363)
chain: MSNFINIHVLISHSPSCLNRDDMNMQKDAIFGGKRRVRISSQSLKRAMRKSGYYAQNIGESSLRTIHLAQLRDVLRQKLGERFDQKIIDKTLALLSGKSVDEAEKISADAVTPWVVGEIAWFCEQVAKAEADNLDDKKLLKVLKEDIAAIRVNLQQGVDIALSGRMATSGMMTELGKVDGAMSIAHAITTHQVDSDIDWFTAVDDLQEQGSAHLGTQEFSSGVFYRYANINLAQLQENLGGASREQALEIATHVVHMLATEVPGAKQRTYAAFNPADMVMVNFSDMPLSMANAFEKAVKAKDGFLQPSIQAFNQYWDRVANGYGLNGAAAQFSLSDVDPITAQVKQMPTLEQLKSWVRNNGEA
For B1, the binding entry in the experiment with Cse1 (CasA) (E. coli) [1] and in the experiment with Cse1 (CasA) (E. coli) [2] was “binds” throughout.

B2: Cse2 (CasB) (protein, UniProt P76632 1-160)
chain: MADEIDAMALYRAWQQLDNGSCAQIRRVSEPDELRDIPAFYRLVQPFGWENPRHQQALLRMVFCLSAGKNVIRHQDKKSEQTTGISLGRALANSGRINERRIFQLIRADRTADMVQLRRLLTHAEPVLDWPLMARMLTWWGKRERQQLLEDFVLTTNKNA
For the molecule B2, the binding result in the experiment with Cse1 (CasA) (E. coli) [1] and in the experiment with Cse1 (CasA) (E. coli) [2] was “binds” throughout.

B3: Cas6e (CasE) (enzyme, UniProt Q46897 1-199)
chain: MYLSKVIIARAWSRDLYQLHQGLWHLFPNRPDAARDFLFHVEKRNTPEGCHVLLQSAQMPVSTAVATVIKTKQVEFQLQVGVPLYFRLRANPIKTILDNQKRLDSKGNIKRCRVPLIKEAEQIAWLQRKLGNAARVEDVHPISERPQYFSGDGKSGKIQTVCFEGVLTINDAPALIDLVQQGIGPAKSMGCGLLSLAPL
With B3, the binding result with Cse1 (CasA) (E. coli) [1] and with Cse1 (CasA) (E. coli) [2] was “binds” in each case.
